Where cells or extracts were used, other partners may take part. For some of these results: A negative result means that nothing was seen under these conditions. For some of these results: Construct, isoform or probe ends are uncertain for at least one entry.

Chains of the proteins cited; added tags and fusions are not shown. Lines headed by an entry give the natural chain unless they say otherwise; changes in a name come on top.
UniProt P16220: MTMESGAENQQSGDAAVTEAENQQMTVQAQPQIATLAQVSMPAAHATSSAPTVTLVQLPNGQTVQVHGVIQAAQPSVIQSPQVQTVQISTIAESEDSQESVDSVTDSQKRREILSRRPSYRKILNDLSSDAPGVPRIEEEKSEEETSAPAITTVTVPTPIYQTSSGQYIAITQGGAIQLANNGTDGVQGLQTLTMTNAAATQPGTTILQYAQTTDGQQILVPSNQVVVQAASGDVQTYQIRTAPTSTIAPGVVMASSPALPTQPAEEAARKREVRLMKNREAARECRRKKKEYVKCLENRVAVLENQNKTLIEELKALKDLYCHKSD
UniProt Q13950, whole entry: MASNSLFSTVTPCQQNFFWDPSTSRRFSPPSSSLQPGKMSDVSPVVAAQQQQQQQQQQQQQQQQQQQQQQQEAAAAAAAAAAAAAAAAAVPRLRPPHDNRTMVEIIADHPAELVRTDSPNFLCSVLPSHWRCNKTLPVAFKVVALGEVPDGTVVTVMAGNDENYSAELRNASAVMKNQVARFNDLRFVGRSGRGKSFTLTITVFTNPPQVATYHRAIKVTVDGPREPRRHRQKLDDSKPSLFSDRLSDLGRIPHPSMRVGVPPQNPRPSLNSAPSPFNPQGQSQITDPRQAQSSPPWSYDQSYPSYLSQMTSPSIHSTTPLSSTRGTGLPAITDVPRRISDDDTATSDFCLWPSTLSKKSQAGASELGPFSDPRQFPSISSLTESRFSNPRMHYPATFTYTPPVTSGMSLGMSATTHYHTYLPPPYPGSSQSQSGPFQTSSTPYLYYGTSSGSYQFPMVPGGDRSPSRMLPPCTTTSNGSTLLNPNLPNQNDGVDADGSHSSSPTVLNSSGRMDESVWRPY

Series [1] has as its target CREB (endogenous, C4-2B nuclear extract) (Homo sapiens) (UniProt P16220). The series is described as follows: competition with a labelled probe. The note with it: unlabeled Mut6 did not compete for the CRE-nuclear protein complex; protein in an extract; variant of hOC CRE wild type probe.
The target is the same in series [2]. The series is described as follows: EMSA. As to conditions: nuclear extract; complex enhanced by ARCaP CM or forskolin, blocked by H-89, competed by unlabeled CRE, supershifted by anti-CREB; poly(dI-dC), 50 mM NaCl …; protein in an extract; label: 32P 5' end. (In general: Mobility shift assays separate free from complexed probe on a gel.)
In series [3] the target is Runx2/AML3 (endogenous, C4-2B or MG63 nuclear extract) (Homo sapiens) (UniProt Q13950). In words: EMSA. The note with it: no supershift with anti-Runx2 antibody; specificity control; protein in an extract; label: 32P 5' end.
The target of series [4] is CREB (endogenous, MG63 nuclear extract) (Homo sapiens) (UniProt P16220). In words: EMSA. As to conditions: protein in an extract; label: 32P 5' end.

Turning to “ACCAACCGGCTGAAATCATCTCCTGCC (double strand) [hOC CRE Mut6]”, in series [1], the binding result is recorded as “no binding”.
As for “ACCAACCGGCTGACCTCATCTCCTGCC (double strand) [hOC CRE wild type probe]”, the figures for the binding result in series [2], in series [3] and in series [4] were “binds”, “no binding” and “no binding”, respectively.

The record behind these values is patent US20070078085.
